Inconclusive results, whose numbers are uncertain, are shown with a selection of clear calls. For part of these data: Potencies beside an inconclusive call are fits to weak or partial responses and may not hold up. Active and inactive are the calls of the source. Unless noted, the call rests on the fitted dose curve; in most records, active means well fitted curve in the direction sought with a large enough effect; inconclusive means small, poorly fitted or top-dose-only effect, or another doubt; inactive means no such curve, though single readings can be large; an effect the other way counts as inactive or inconclusive.
Columns and labels:
[1] = Stat Signaling Pathway (AID 446; active means well fitted curve in either direction with a large enough effect, not every such curve was filed as active; inconclusive means small, poorly fitted or top-dose-only effect, or another doubt;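 further: ME-180 cervical cancer cells given 40 pM IL-6 alongside compound; SIE-controlled beta-lactamase reporter measured as 460/530 nm FRET emission ratio; on the % scale 0 is the no-effect control and ±100 the full control effect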); conditions: ME-180 SIE beta-lactamase reporter, IL-6 stimulated, 5 h; at 7.69 µM (top of the series) unless noted
In short: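 Compound effects on IL-6-induced STAT reporter activity were measured in ME-180 cells. After overnight culture, cells were co-treated with 40 pM IL-6 for 5 hrs before beta-lactamase substrate loading at room temperature.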

The chains behind the UniProt entries cited, without tags or fusion partners. Where a name states a change or a piece, a line headed by the entry shows the natural chain unless it says otherwise.
UniProt P04150: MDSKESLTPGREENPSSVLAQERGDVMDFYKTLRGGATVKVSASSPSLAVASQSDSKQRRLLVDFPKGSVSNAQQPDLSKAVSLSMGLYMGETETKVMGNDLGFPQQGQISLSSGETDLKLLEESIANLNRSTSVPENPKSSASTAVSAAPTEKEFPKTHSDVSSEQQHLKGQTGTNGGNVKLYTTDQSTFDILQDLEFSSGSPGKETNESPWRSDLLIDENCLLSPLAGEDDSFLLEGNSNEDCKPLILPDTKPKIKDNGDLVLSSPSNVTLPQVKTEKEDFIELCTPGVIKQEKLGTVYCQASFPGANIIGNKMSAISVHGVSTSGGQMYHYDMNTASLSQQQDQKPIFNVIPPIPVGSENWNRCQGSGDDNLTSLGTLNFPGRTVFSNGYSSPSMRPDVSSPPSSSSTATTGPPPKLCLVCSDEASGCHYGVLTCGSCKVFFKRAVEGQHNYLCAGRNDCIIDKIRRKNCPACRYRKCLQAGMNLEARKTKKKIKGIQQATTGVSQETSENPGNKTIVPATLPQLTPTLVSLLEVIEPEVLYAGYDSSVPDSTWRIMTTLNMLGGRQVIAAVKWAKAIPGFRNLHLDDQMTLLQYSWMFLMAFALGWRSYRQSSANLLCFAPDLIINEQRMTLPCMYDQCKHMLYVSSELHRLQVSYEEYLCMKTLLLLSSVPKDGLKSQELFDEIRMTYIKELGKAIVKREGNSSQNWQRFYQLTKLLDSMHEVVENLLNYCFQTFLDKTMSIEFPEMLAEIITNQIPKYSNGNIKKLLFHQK
UniProt Q07343: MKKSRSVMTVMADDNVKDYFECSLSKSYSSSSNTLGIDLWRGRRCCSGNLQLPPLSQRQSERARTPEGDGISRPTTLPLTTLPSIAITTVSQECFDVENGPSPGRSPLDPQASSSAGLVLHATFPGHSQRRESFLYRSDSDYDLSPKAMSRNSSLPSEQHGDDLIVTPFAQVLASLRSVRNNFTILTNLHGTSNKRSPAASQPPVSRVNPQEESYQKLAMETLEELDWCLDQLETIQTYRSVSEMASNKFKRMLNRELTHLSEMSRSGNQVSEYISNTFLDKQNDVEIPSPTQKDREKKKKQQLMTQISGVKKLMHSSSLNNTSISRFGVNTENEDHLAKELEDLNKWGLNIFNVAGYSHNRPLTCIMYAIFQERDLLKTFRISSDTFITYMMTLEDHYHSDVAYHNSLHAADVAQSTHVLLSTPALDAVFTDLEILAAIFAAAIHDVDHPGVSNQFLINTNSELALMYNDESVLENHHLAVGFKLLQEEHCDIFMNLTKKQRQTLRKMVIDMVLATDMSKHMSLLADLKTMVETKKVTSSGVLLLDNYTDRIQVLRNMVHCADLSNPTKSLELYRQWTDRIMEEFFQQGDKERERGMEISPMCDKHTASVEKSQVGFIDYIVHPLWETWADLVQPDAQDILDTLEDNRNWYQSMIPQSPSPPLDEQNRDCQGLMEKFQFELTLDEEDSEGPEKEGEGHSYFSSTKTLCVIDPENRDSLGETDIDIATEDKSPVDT

AS120 = assay: qHTS profiling for inhibitors of Plasmodium falciparum proliferation (AID 504749); further: nearly all actives have a fitted effect of over 60% in size; further: potency means the concentration at half of the fitted maximal effect;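 on activity, negative = inhibition: 0% = DMSO vehicle and full inhibition = artemisinin control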; conditions: P. falciparum in erythrocytes, SYBR Green DNA, 72 h; series mostly up to 12.8 µM
In short: (§1)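 Quantitative HTS: compounds pinned into medium, infected erythrocytes added (0.3% parasitemia, 2.5% hematocrit), 72 h culture at 37 C under 5% CO2. Saponin/Triton lysis with SYBR Green I, overnight RT, then fluorescence read.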

CP237 = assay: as above; conditions: P. falciparum in erythrocytes, SYBR Green DNA, 72 h; series mostly up to 28.7 µM
In short: as §1

CP268 = assay: as above; conditions: P. falciparum in erythrocytes, SYBR Green DNA, 72 h; series mostly up to 28.7 µM
In short: as §1

CP329 = assay: as above; conditions: P. falciparum in erythrocytes, SYBR Green DNA, 72 h; series mostly up to 28.7 µM
In short: as §1

DIV17 = assay: as above; conditions: P. falciparum in erythrocytes, SYBR Green DNA, 72 h; activity, negative = inhibition: at 28.7 µM (top of the series) unless noted
In short: as §1

[2] = S16 Schwann cell PMP22 intronic element beta-lactamase assay (AID 624044; calls by dose curve;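 further: 0% = DMSO and -100% = potassium clavulanate positive control; nearly all actives have a fitted effect of over 15% in size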); conditions: S16 rat Schwann cells, PMP22 element beta-lactamase FRET, 24 h; ratio activity, negative = inhibition: at 38.3 µM (top of the series) unless noted
In short: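 Beta-lactamase reporter under a PMP22 intronic regulatory element in stable S16 rat Schwann cells; 24 h compound exposure. 460 nm blue signal normalized between DMSO (0%) and potassium clavulanate, with 535 nm FRET tracking viability; curves classed by r2 and response.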

CP215 = assay: qHTS profiling for inhibitors of Plasmodium falciparum proliferation (AID 504749); further: nearly all actives have a fitted effect of over 60% in size; further: potency means the concentration at half of the fitted maximal effect;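 on activity, negative = inhibition: 0% = DMSO vehicle and full inhibition = artemisinin control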; conditions: P. falciparum in erythrocytes, SYBR Green DNA, 72 h; series mostly up to 28.7 µM
In short: as §1

W2 = assay: as above; conditions: P. falciparum in erythrocytes, SYBR Green DNA, 72 h; series mostly up to 28.7 µM
In short: as §1

[3] = molecular target: Glucocorticoid receptor (Homo sapiens) (UniProt P04150); assay: GR-GFP Redistribution (AID 450;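 active means compounds whose dose series gives a full or clear partial fitted curve of increased nuclear translocation; inconclusive means weak partial curve or effect only at the top dose; inactive means no dose-dependent translocation response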; further: potency means the concentration at half of the fitted maximal effect); conditions: U2OS GR-GFP nuclear translocation, laser cytometry, 2 h
[4] = qHTS Assay for Identification of Small Molecule Agonists for Hypoxia Response Element Signaling Pathway (AID 914; active means well fitted activation curve with a large enough effect in the signal ratio, with a control signal flat, not every such curve was filed as active; inconclusive means small, poorly fitted or top-dose-only effect, or effect the other way, or a change in a side signal; the % refers to the signal ratio; further: potency means the concentration at half of the fitted maximal effect); conditions: ME-180 (cervical carcinoma) HRE-bla reporter, beta-lactamase ratio, CoCl2, 17 h; activation: active compounds read high
In short: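 A beta-lactamase reporter under hypoxia response element control in ME-180 cells served as the system. Compound titrations plus EC50 CoCl2 ran 17 h at 37 degrees Celsius; AC50 values were fitted from %Activity.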

[5] = molecular target: 3',5'-cyclic-AMP phosphodiesterase 4B (Homo sapiens) (UniProt Q07343); assay: qHTS Assay for Inhibitors of PDE-IV (AID 607; active means well fitted activation curve with a large enough effect in the main read-out, with a control signal flat, not every such curve was filed as active; inconclusive means small, poorly fitted or top-dose-only effect, or effect the other way, or a change in a side signal; further: % of control where 0% means no effect); conditions: HEK293 ACTOne CNG channel cells, membrane potential fluorescence; activation (PDE inhibition): at 22.9 µM (top of the series)
In short: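 ACTOne HEK293 cells carry a modified cAMP-gated CNG channel and express endogenous PDE4; plated 1000 cells/well, compounds up to 22.9 uM final. Membrane-potential dye fluorescence (ex 535/em 590) was read; parental cells received 10 uM forskolin + 100 uM RO 20-1724.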

[6] = S16 Schwann cell PMP22 intronic element firefly luciferase assay (AID 624032);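 further: plate controls were DMSO for no effect and PTC124 positive control mean for full effect; nearly all actives have a fitted effect of over 30% in size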
In short: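 Rat S16 Schwann cells stably carrying a PMP22 intronic element-driven Fluc reporter were seeded overnight, then exposed to compounds for 24 h at 37 °C. Luminescence was normalized to PTC124 (positive control) and DMSO (0% activity).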

AA1029 = assay: qHTS profiling for inhibitors of Plasmodium falciparum proliferation (AID 504749); further: nearly all actives have a fitted effect of over 60% in size; further: potency means the concentration at half of the fitted maximal effect;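 on activity, negative = inhibition: 0% = DMSO vehicle and full inhibition = artemisinin control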; conditions: P. falciparum in erythrocytes, SYBR Green DNA, 72 h; series mostly up to 28.7 µM
In short: as §1

CP185 = assay: as above; conditions: P. falciparum in erythrocytes, SYBR Green DNA, 72 h; series mostly up to 28.7 µM
In short: as §1

CP194 = assay: as above; conditions: P. falciparum in erythrocytes, SYBR Green DNA, 72 h; series mostly up to 28.7 µM
In short: as §1

CP201 = assay: as above; conditions: P. falciparum in erythrocytes, SYBR Green DNA, 72 h; series mostly up to 28.7 µM
In short: as §1

CP203 = assay: as above; conditions: P. falciparum in erythrocytes, SYBR Green DNA, 72 h; series mostly up to 28.7 µM
In short: as §1

CP211 = assay: as above; conditions: P. falciparum in erythrocytes, SYBR Green DNA, 72 h; series mostly up to 28.7 µM
In short: as §1

CP247 = assay: as above; conditions: P. falciparum in erythrocytes, SYBR Green DNA, 72 h; series mostly up to 28.7 µM
In short: as §1

CP252 = assay: as above; conditions: P. falciparum in erythrocytes, SYBR Green DNA, 72 h; series mostly up to 28.7 µM
In short: as §1

CP256 = assay: as above; conditions: P. falciparum in erythrocytes, SYBR Green DNA, 72 h; series mostly up to 28.7 µM
In short: as §1

CP262 = assay: as above; conditions: P. falciparum in erythrocytes, SYBR Green DNA, 72 h; series mostly up to 28.7 µM
In short: as §1

CP269 = assay: as above; conditions: P. falciparum in erythrocytes, SYBR Green DNA, 72 h; series mostly up to 12.8 µM
In short: as §1

CP286 = assay: as above; conditions: P. falciparum in erythrocytes, SYBR Green DNA, 72 h; series mostly up to 28.7 µM
In short: as §1

CP291 = assay: as above; conditions: P. falciparum in erythrocytes, SYBR Green DNA, 72 h; series mostly up to 28.7 µM
In short: as §1

CP297 = assay: as above; conditions: P. falciparum in erythrocytes, SYBR Green DNA, 72 h; activity, negative = inhibition: at 12.8 µM (top of the series) unless noted
In short: as §1

CP305 = assay: as above; conditions: P. falciparum in erythrocytes, SYBR Green DNA, 72 h; series mostly up to 28.7 µM
In short: as §1

CP315 = assay: as above; conditions: P. falciparum in erythrocytes, SYBR Green DNA, 72 h; series mostly up to 28.7 µM
In short: as §1

CP325 = assay: as above; conditions: P. falciparum in erythrocytes, SYBR Green DNA, 72 h; series mostly up to 28.7 µM
In short: as §1

CP335 = assay: as above; conditions: P. falciparum in erythrocytes, SYBR Green DNA, 72 h; series mostly up to 28.7 µM
In short: as §1

DFO2036 = assay: as above; conditions: P. falciparum in erythrocytes, SYBR Green DNA, 72 h; series mostly up to 28.7 µM
In short: as §1

DIV14 = assay: as above; conditions: P. falciparum in erythrocytes, SYBR Green DNA, 72 h; series mostly up to 28.7 µM
In short: as §1

Dd2 = assay: as above; conditions: P. falciparum in erythrocytes, SYBR Green DNA, 72 h; series mostly up to 28.7 µM
In short: as §1

ECU = assay: as above; conditions: P. falciparum in erythrocytes, SYBR Green DNA, 72 h; series mostly up to 28.7 µM
In short: as §1

GB4 = assay: as above; conditions: P. falciparum in erythrocytes, SYBR Green DNA, 72 h; series mostly up to 28.7 µM
In short: as §1

HB3 = assay: as above; conditions: P. falciparum in erythrocytes, SYBR Green DNA, 72 h; series mostly up to 28.7 µM
In short: as §1

ICS = assay: as above; conditions: P. falciparum in erythrocytes, SYBR Green DNA, 72 h; series mostly up to 28.7 µM
In short: as §1

P93_24 = assay: as above; conditions: P. falciparum in erythrocytes, SYBR Green DNA, 72 h; series mostly up to 28.7 µM
In short: as §1

P94_40 = assay: as above; conditions: P. falciparum in erythrocytes, SYBR Green DNA, 72 h; series mostly up to 28.7 µM
In short: as §1

TAB109 = assay: as above; conditions: P. falciparum in erythrocytes, SYBR Green DNA, 72 h; series mostly up to 28.7 µM
In short: as §1

TAB165 = assay: as above; conditions: P. falciparum in erythrocytes, SYBR Green DNA, 72 h; series mostly up to 28.7 µM
In short: as §1

[7] = molecular target: Glucocorticoid receptor (Homo sapiens) (UniProt P04150); assay: GR-EFC Redistribution (AID 451; calls by dose curve; further: potency means the concentration at half of the fitted maximal effect); conditions: CHO-K1 GR-EFC translocation, beta-gal luminescence, 2 h
In short: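 CHO-K1 cells stably expressing nuclear-localized β-gal enzyme acceptor and GR fused C-terminally to the enzyme donor fragment; ligand-driven nuclear translocation restores β-gal by complementation. Compounds titrated up to 46 uM final, 2 h at 37 °C; luminescence read.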

CCC[C@H]1C(=O)N2C(N(C)C)=Nc3ccc(C)cc3N2C1=O
inactive: activity, negative = inhibition [1] -9.03% [at 17.2 µM] | Potency (AS120) | Potency (CP237) | Potency (CP268) | Potency (CP329) | Potency (DIV17)

C1CCN2C[C@@H]3C[C@@H](CN4CCCC[C@H]34)[C@H]2C1
inactive: activity, negative = inhibition [1] -6.99% [at 17.2 µM] | Potency [2]
inconclusive: Potency (CP215) 8.09 µM [inhibitor, single point] | Potency (W2) 0.203 µM [inhibitor, full curve, poor fit]

CC(C)CSC[C@@H]1O[C@H](n2cnc3c(N)nccc32)[C@H](O)[C@@H]1O
inconclusive: activity, negative = inhibition [1] 2.86% [inhibitor]

C=CCN1C(=O)CC(C(=O)NC)SC1=Nc1ccc(C(=O)OCC)cc1 (centres undefined)
inactive: activity, negative = inhibition [1] -3.3% [at 17.2 µM]

CCOC(=O)C(O)(C1C(=O)CC(C)(C)CC1=O)C(F)(F)F (centres undefined)
active: Potency [4] 10 µM
inconclusive: activity, negative = inhibition [1] 156% [activator] [at 17.2 µM] | Potency [3] 21.9 µM [single point]

CS(=O)(=O)c1ccc([C@H](O)[C@H](CO)NC(=O)C(Cl)Cl)cc1
inconclusive: Potency (AA1029) 4.47 µM [inhibitor, single point] | Potency (CP185) 3.16 µM [inhibitor, partial curve, poor fit] | Potency (CP194) 5.1 µM [inhibitor, partial curve] | Potency (CP201) 4.55 µM [inhibitor, partial curve, poor fit] | Potency (CP203) 5.73 µM [inhibitor, partial curve, poor fit] | Potency (CP211) 8.09 µM [inhibitor, single point] | Potency (CP215) 5.73 µM [inhibitor, single point] | Potency (CP237) 4.47 µM [inhibitor, partial curve] | Potency (CP252) 7.08 µM [inhibitor, single point] | Potency (CP256) 3.98 µM [inhibitor, single point] | Potency (CP262) 5.1 µM [inhibitor, single point] | Potency (CP268) 6.42 µM [inhibitor, single point] | Potency (CP269) 5.73 µM [inhibitor, partial curve] | Potency (CP286) 3.55 µM [inhibitor, single point] | Potency (CP291) 7.21 µM [inhibitor, single point] | Potency (CP297) 6.42 µM [inhibitor, single point] | Potency (CP305) 7.21 µM [inhibitor, single point] | Potency (CP315) 8.09 µM [inhibitor, partial curve, poor fit] | Potency (CP325) 6.42 µM [inhibitor, partial curve] | Potency (CP329) 8.09 µM [inhibitor, partial curve, poor fit] | Potency (CP335) 8.09 µM [inhibitor, single point] | Potency (DFO2036) 3.16 µM [inhibitor, single point] | Potency (Dd2) 4.47 µM [inhibitor, single point] | Potency (ECU) 0.199 µM [inhibitor, single point] | Potency (GB4) 5.73 µM [inhibitor, partial curve, poor fit] | Potency (ICS) 7.08 µM [inhibitor, single point] | Potency (P93_24) 5.01 µM [inhibitor, single point] | Potency (P94_40) 3.55 µM [inhibitor, single point] | Potency (TAB109) 2.51 µM [inhibitor, partial curve] | Potency (TAB165) 3.55 µM [inhibitor, single point] | Potency (W2) 5.1 µM [inhibitor, single point]
inactive: activity, negative = inhibition [1] 7.9% [at 17.2 µM] | Potency [5] | Potency [6] | Potency (CP247) | Potency (DIV14) | Potency (HB3)

C[N+]1(CCC[N+]2(C)C[C@H]3[C@H](C2)[C@H]2C=C[C@@H]3CC2)CCOCC1 (some centres undefined)
inconclusive: activity, negative = inhibition [1] 5.69% [inhibitor] | Potency [7] 7.98 µM [single point]
